Data: patent US20260216144A1, “TARGETING MB2 OF THE MYC ONCOGENE AND ITS INTERACTION WITH TRRAP IN CANCER” (priority 2019, published 2026)
Some of these results come from one statement about several compounds together.

Chains of the proteins cited; added tags and fusions are not shown. Residues count along the entry.
UniProt P01106, 16-454: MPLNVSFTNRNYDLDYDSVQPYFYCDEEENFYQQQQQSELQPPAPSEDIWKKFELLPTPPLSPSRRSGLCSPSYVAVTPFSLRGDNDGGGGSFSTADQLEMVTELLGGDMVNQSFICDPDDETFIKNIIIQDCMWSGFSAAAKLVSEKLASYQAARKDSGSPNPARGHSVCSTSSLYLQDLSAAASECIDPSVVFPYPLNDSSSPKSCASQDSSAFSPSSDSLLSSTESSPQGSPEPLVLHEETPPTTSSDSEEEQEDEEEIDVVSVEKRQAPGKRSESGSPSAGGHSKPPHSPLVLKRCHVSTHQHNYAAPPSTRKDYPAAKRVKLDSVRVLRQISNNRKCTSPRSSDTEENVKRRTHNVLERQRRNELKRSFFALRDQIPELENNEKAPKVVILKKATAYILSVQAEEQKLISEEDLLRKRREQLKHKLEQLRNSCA
UniProt Q9Y4A5, 1-3830 isoform Q9Y4A5-2: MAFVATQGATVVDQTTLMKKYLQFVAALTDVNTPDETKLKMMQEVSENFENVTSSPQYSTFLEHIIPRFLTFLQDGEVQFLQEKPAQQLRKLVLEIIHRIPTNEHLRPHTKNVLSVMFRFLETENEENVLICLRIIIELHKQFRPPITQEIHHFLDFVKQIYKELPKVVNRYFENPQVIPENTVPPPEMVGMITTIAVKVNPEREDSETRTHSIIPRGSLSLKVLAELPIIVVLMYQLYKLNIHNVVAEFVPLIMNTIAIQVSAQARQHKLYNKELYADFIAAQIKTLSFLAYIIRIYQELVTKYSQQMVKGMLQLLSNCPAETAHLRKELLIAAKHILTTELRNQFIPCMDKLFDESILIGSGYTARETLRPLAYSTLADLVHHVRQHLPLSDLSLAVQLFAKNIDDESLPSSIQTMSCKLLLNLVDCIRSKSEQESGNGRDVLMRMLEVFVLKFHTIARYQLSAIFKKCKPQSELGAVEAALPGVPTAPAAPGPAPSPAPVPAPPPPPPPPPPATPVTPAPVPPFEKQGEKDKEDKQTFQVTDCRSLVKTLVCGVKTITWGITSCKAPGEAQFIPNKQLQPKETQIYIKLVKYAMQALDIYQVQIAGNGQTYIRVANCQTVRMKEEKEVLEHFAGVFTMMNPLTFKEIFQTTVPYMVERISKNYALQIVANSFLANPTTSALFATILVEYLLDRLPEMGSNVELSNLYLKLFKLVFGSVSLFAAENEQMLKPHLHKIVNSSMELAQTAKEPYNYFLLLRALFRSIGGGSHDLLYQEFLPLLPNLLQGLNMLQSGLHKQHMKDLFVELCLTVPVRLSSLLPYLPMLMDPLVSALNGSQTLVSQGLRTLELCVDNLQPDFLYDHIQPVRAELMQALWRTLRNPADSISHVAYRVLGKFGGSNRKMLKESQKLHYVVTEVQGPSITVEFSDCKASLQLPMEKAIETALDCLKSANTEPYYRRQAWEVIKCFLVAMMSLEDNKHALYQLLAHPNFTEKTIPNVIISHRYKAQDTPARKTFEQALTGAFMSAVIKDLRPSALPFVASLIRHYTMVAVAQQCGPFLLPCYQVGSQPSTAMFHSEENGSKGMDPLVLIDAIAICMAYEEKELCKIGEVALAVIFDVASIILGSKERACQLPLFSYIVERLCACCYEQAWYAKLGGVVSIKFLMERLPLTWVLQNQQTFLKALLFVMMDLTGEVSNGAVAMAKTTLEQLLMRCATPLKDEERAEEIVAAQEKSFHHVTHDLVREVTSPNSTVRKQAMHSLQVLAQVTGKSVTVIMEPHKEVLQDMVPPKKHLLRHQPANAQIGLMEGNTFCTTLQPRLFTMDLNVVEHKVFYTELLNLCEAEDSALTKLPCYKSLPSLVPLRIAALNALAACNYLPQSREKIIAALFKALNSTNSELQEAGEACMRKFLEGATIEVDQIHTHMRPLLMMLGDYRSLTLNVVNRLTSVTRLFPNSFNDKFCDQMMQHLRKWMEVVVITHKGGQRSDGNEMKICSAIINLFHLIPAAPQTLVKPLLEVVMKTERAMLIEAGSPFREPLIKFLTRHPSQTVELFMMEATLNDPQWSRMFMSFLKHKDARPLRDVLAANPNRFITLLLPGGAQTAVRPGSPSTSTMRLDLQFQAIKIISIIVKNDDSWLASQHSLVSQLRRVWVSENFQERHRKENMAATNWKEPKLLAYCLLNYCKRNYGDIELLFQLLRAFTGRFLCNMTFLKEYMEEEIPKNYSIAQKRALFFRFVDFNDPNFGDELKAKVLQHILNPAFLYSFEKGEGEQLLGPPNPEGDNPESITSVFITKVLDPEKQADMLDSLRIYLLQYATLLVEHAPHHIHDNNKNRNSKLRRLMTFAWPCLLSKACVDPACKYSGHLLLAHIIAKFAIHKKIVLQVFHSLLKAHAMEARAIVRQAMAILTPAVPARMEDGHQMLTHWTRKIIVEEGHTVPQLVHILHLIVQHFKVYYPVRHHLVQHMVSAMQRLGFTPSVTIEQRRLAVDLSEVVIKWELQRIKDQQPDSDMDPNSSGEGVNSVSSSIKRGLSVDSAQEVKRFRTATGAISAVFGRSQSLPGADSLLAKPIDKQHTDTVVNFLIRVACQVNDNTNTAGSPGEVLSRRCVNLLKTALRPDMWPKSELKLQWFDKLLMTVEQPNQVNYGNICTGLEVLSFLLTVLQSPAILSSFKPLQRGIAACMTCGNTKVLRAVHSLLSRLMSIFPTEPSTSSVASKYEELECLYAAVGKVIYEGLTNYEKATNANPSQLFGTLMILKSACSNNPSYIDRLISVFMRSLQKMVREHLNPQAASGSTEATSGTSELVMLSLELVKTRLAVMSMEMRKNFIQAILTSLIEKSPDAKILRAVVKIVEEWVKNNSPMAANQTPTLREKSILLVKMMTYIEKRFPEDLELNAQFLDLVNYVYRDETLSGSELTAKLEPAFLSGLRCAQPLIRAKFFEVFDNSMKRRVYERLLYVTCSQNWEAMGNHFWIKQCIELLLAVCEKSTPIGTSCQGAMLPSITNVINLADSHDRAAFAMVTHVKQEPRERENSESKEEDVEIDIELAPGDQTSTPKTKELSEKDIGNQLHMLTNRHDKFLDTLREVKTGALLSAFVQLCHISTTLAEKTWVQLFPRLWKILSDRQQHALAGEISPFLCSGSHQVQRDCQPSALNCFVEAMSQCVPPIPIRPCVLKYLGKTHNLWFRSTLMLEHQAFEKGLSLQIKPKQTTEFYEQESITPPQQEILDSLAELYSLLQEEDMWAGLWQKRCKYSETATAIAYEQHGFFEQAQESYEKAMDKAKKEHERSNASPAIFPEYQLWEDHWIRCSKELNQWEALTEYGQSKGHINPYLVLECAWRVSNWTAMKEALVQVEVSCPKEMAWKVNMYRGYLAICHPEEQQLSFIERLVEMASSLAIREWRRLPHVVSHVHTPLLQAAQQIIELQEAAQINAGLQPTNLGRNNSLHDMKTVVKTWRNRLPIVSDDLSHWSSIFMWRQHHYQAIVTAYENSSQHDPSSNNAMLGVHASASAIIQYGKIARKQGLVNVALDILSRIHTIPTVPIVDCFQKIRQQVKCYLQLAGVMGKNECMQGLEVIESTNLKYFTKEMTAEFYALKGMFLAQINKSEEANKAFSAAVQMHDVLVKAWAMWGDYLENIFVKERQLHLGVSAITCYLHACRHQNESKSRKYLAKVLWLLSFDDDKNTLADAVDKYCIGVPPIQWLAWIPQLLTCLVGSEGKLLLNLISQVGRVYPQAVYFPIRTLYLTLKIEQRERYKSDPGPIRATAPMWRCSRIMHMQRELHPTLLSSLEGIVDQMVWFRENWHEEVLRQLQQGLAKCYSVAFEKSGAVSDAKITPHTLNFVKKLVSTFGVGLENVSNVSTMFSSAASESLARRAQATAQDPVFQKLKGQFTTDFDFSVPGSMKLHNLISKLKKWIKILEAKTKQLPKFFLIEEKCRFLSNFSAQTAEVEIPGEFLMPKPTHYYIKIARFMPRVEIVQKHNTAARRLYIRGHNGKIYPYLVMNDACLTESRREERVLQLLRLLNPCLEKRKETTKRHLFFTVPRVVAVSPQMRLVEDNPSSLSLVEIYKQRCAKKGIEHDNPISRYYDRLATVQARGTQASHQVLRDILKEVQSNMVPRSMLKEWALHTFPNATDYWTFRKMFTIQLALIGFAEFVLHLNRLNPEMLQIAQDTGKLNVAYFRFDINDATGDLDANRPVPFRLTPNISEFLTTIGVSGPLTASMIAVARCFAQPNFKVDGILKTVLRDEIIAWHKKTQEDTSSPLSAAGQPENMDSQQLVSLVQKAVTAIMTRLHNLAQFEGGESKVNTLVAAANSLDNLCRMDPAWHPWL

Target: T1, endogenous MYC:TRRAP complex (Homo sapiens, UniProt P01106+Q9Y4A5)
T1 construct: immunoprecipitation experiments using endogenous full length MYC and TRRAP
Assay: co-IP of the endogenous MYC:TRRAP complex from HeLa cells incubated with compounds
Type: cell-based
Conditions: 25 μM, 2 h, FIG. 19-21
Experimental: FIGS. 23A-23B show the results of co-IP assay experiments comparing the top 17 hits in immunoprecipitation experiments using endogenous full length MYC and TRRAP. In these experiments immunocomplexes were immunoprecipitated with anti-MYC beads in the presence of 25 μM of each of the 17 top compounds. Experiments were carried out in cells (compounds were added to the media of cells) (FIG. 23B) or in vitro (compounds were added directly to the purified complex on pre-washed beads) (FIG. 23A). Immunoprecipitation of TRRAP was normalized to the immunoprecipitation of MYC.
The indicated TRRAP constructs were cloned into a CMV-driven plasmid containing an N-terminal FLAG tag as previously described (23). […] Co-immunoprecipitation was analyzed by western blots with the following antibodies: MYC (sc-764 Santa Cruz Biotechnology), TRRAP (A301-132A Bethel Laboratories), FLAG (F7425 Sigma Aldrich), and PYO (Covance).
Co-IP experiments of the endogenous MYC:TRRAP complex were carried out to validate the results from the MYC:TRRAP in-cell luminescence complementation screen performed. […] Incubation with some of the compounds that scored positive by the in-cell luminescence complementation screen had the predicted effect on the endogenous MYC:TRRAP complex. […]

Compound: COC1=C(N)C(=O)c2nc(-c3nc(C(=O)O)c(C)c(-c4ccc(OC)c(OC)c4O)c3N)ccc2C1=O [Compound 14, 5-amino-6-(7-amino-6-methoxy-5,8-dioxoquinolin-2-yl)-4-(2-hydroxy-3,4-dimethoxyphenyl)-3-methylpyridine-2-carboxylic acid]
- effect on endogenous MYC:TRRAP co-IP: did not show any decrease
